The target of the experiment is OTUD6^C183A.FLAG.HA (Drosophila (endogenous locus, fly heads)). Kind of experiment: affinity purification with mass spectrometry; anti-FLAG Dynabeads, Drosophila head lysate (10 mM HEPES pH 7.4, 150 mM NaCl, 5 mM MgCl2, 0.5% Triton X-100), 4 °C 30 min, 3xFLAG peptide elution; untagged OTUD6^C183A flies as control; SAINT analysis.

Results are given in words; binding and its absence hold for the method and conditions named. In cells and extracts the contact can be indirect. A yes stands for co-enrichment or nearness to the bait. Other partners may have been found.

Drawing on article PMC11316749, this text covers binding for 2 molecules.

B1: DIS3 (enzyme, UniProt Q9VC93 1-982)
chain: MQTLREFTRKTKRGNILKIVREHYLRDDIGCGSELCRECFQNEVYQLTSQHANKSTLFKFPHYLVLDTNVVLDQIDVLEEDVLRNVVVLTTVLNEVKHRSSAIYKRFNEIVHDRTRNFYVFVNEHHKETYADREPDETANDRNDRAIRLATKWYDDHLQASQSSKEFERSGKAATRVVLLTDDAANRAKAEAEGILVTTAAEYVKSLEDFPLLMDKLSHKTFDSEKNGLPQYPPHLSMKELLEGLRQNKLLQGTFQASRENYLEGTVNVEKFEKGILIQGRESLNRAVDGDLVAVELLPEAEWSAPSEIVLEEKNVYADEVPSEERAKDENEMLNQVRAAALSAERTPTGRIVGIVRRKWRQYCGILQPSLIEDTNRHIFVPADRKIPRIRIETRQAAMLQNQRIIVTIDTWPRNSRYPHGHFVRSLGPLGDMATENEVILLEHDVPHCKFSDEVLSFLPKMPWTITDEDYSKRVDLRDLYICSVDPPGCTDIDDALHCKELPNGNLEVGVHIADVSHFIRPGNALDMEAAARGTTVYLVGKRIDMVPELLSSNLCSLVGGVERFAFSCVWEVDNEANVLSKRFHKSVIKSKRAMTYEEAQNIIDDATQQNEIAKSLRNLNRLAKILKKRRMDNGALVLASPEIRFQVDSETHEPLEVEVKQMRETNSMVEEFMLLANITVAEHIATEFSECAVLRRHPRPPPTNFDPLVKSARYQGFQVDINSGLELSHSLDKCVKADNPYFNTMIRILTTRCMMQAVYFISGSLQKEEFFHYGLAAPIYTHFTSPIRRYSDIMVHRLLAASIGADSTYAQLLDRKSNEELCHNLNYRHKMAQYAGRASVALNTHLFFRGKEEDEEGYVLFVRKNALQVLIPKYGLEGTLYLKSDKDGKDGVERVKSEIVFTFNEEDHTQRCGDVVFHSFDPVTVRLSLDSSNVQHEKLIFRLVKPYIKGFSVETTTEGTDSQAVSAAPPSKKTKKDKKKK
Consider B1, for which the binding result is reported as “binds”.

B2: RPS7 (ubiquitination state not told) (protein, UniProt Q9VA91 1-194)
chain: MAIGSKIIKPGGSDPDDFEKSIAQALVELEANSDLKPYLRDLHITRAREIEFGSKKAVIIYVPIPQQKVFQKIQIILVRELEKKFSGKHVVVIAERKILPKPTRKARNPLKQKRPRSRTLTAVYDAILEDLVFPAEIVGKRIRVKLDGSQLVKVHLDKNQQTTIEHKVDTFTSVYKKLTGRDVTFEFPDNYLNV
On to B2, for which the binding result is given as “binds”.
